From PMC11649824
Results are given in words; binding and its absence hold for the method and conditions named. Binding seen in cells or lysates may run through a third protein. A yes stands for co-enrichment or nearness to the bait. Other partners may have been found.

Sequences of proteins named here, by UniProt entry; tags and fusion partners are left off. A change or cut given only in a name is not applied to a line headed by its entry.
UniProt F4HWS5: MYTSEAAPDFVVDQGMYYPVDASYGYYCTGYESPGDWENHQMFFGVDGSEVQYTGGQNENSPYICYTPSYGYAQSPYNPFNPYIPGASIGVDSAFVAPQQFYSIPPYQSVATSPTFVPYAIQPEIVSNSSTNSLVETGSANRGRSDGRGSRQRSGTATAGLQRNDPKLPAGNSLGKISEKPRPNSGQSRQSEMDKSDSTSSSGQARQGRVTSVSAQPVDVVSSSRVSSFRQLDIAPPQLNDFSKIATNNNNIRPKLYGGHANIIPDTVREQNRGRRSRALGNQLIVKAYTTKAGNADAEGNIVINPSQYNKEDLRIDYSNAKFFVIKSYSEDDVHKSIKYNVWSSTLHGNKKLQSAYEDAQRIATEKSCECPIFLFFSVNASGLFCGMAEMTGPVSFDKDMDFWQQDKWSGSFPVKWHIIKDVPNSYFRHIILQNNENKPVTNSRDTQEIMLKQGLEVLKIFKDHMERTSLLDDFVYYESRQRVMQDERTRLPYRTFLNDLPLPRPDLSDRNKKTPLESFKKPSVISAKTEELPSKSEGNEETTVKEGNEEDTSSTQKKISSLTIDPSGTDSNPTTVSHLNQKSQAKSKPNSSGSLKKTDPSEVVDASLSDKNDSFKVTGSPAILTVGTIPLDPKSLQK
UniProt A0A1P8AM56: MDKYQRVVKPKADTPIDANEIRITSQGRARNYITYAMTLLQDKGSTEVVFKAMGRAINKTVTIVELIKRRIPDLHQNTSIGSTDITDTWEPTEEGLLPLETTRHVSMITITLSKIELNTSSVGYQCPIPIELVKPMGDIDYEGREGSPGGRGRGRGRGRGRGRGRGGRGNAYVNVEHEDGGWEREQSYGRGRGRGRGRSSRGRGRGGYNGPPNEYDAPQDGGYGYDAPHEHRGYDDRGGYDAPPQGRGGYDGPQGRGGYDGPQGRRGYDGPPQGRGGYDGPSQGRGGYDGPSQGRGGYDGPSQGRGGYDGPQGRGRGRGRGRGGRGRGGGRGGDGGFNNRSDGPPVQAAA
UniProt Q9LP53: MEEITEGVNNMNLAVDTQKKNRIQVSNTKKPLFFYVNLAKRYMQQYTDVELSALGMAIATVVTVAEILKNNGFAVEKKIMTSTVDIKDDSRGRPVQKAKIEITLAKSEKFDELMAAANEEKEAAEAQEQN

T1: ECT2^WT-mCherry (Arabidopsis thaliana) (UniProt Q9LJE5)
T1 sequence: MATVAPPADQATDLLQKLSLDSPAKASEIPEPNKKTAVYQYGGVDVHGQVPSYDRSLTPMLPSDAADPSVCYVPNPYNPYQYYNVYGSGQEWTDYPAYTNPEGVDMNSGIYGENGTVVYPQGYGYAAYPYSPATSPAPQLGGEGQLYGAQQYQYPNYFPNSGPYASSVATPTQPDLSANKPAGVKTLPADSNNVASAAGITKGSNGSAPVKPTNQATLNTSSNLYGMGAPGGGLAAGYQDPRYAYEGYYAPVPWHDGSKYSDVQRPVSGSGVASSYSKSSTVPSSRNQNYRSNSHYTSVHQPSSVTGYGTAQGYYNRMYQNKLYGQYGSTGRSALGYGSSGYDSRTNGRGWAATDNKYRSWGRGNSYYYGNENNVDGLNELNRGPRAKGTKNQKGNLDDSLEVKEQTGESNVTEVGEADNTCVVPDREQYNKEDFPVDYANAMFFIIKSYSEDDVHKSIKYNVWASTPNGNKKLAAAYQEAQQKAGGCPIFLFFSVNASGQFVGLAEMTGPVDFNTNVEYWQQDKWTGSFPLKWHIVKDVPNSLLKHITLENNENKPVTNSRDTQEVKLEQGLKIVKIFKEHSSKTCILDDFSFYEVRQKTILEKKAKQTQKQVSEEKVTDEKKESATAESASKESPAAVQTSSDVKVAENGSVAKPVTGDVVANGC


molecular target: ALBA4-GFP (Arabidopsis thaliana); assay: affinity purification with mass spectrometry; comparative IP-MS of ALBA4-GFP against free GFP; GFP-Trap beads, total lysates of 7-day-old seedlings, IP buffer 50 mM Tris-HCl pH 7.5, 150 mM NaCl, 10% glycerol, 0.1% Triton-X100, 2.5 h at 4 °C; biological triplicates

Row | binding | Molecule
1 | binds | ECT4 (protein, UniProt A0A1P8AS03 1-605) MSTVAPPADQAADVLKKLSLDSKSRTLEIPEPTKKTGVYQYGAMDSNGQVPSFDRSLSPMLPSDALDPSVFYVPNVYQQPYYYGYGSDYTGYTNSESVDMTSGAYGENASLVYPQGYGYAAFPYSPATSPAPQLGGDGQLYGAQQYQYPFPLTASSGPFASSVPASTQSKLSTNKAANSASAGIPKGMNGSAPVKPLNQSALYGNSALGGGLAAGYQDPRYSYDGFYTPVSWHDGSNFSDVQRSVSGSGVASSYSKANNNVPATRNQNSSSNSHYTSMYQPASMTGYAAQGYYDRVSPNKSYGQYGSTVRSGMGYGSSGYGSRTNERGWLNTDNKYRSRGRGNSYFYGNENIDGLNELNRGPRAKGTKATEEVSSEEVKKQTFDESNTEETVTCVLPDREECNRDDFPVEYKDAKFFIIKSYSEDDVHKSIKYNVWASTPNGNKKLDAAYQEAQQKSSGCPVFLFFSVNASGQFIGLAEMKGPVDFNKNIEYWQQDKWTGSFPLKWHILKDVPNSLLKHITLEYNENKPVTNSRDTQEVKLEQGLKVVKIFKEHNSKTCILDDFSFYEARQKTILEKKAKQQQSQKQVWEGKTNDEKPGTVDSTM
2 | binds | ECT1 (protein, UniProt Q3MK94 1-428) MAGAASSDRLVTSFPLLDTADLFQDLSLGSDANEVPMNFTKGSFQHPYGHAPYGASSHGSERRPNMNAGNLLNGGDSIGSYPWGYIPANYPSGGYPDPRFGYDRNSNHSSFSHLMNPHSSQEVPSFDQLGYNDHLYSNHGLYGLYGNVIDSGHAYGTFGYDSWKLGRGWYPVDGYRKTRSFNHGRGYSDEKADRLNELCRGPRSSDFKNPQVLNSSMLDAMKQDVSAVDLQRYNGENFPESFVKAKFFVIKSYSEDDVHNCIKYGAWSSTPTGNKKLNAAYYEAKENSQECPVYLLFSVNASGQFVGLAEMVGPVDFNKTMEYWQQDKWIGCFPVKWHIIKDIPNSLLRHITLANNENKPVTNSRDTQEVNLEHGTKIIKIFKEYMSKTCILDDYKFYETRQKIIRDKKIKQKKQALDGASGETINLS

Second part, the molecule before the results:

Row | Molecule | binding
3 | ECT7 (from UniProt F4HWS5) | binds
4 | ECT3 (protein, UniProt F4K1Z0 1-495) MANPDHVSDVLHNLSIDPTTKALAPDSETKLQGAYGGNGNDFLLNDELVEATKIGKPSLLSKDGGVTKDKGSNLKKLGYQSAAYNAKGSYGKGAYAYGYYPPAYQYPRHGYTGSYASGKTNLQYQYLTQQGRSAGNGQSYGGYMDNIYSNYGMCGPYTNGYGYGSYGYDSWKYMPNWYAVNNTYKPRNGYHGYGKENIEGLNEMNRGPRAKGFNSQDGSKVMAVSLKEQRVTETEKLSEDVSLLDPKDYNKIDFPETYTEAKFYVIKSYSEDDIHKSIKYSVWSSTPNGNKKLDASYNEAKQKSDGCPVFLLFSVNTSGQFVGLAEMVGPVDFNKTVEYWQQDKWIGCFPVKWHFVKDIPNSSLRHITLENNENKPVTNSRDTQEVKLEQGIKVIKIFKDHASKTCILDDFEFYENRQKIIQERKSKHLQIKKQTLVANADKGVMSKINLVKPQESTTASEDAAALGVAAEVTKESKVVKETELPVEKNAVATAC | binds
5 | ECT2 (protein, UniProt Q9LJE5 1-667) MATVAPPADQATDLLQKLSLDSPAKASEIPEPNKKTAVYQYGGVDVHGQVPSYDRSLTPMLPSDAADPSVCYVPNPYNPYQYYNVYGSGQEWTDYPAYTNPEGVDMNSGIYGENGTVVYPQGYGYAAYPYSPATSPAPQLGGEGQLYGAQQYQYPNYFPNSGPYASSVATPTQPDLSANKPAGVKTLPADSNNVASAAGITKGSNGSAPVKPTNQATLNTSSNLYGMGAPGGGLAAGYQDPRYAYEGYYAPVPWHDGSKYSDVQRPVSGSGVASSYSKSSTVPSSRNQNYRSNSHYTSVHQPSSVTGYGTAQGYYNRMYQNKLYGQYGSTGRSALGYGSSGYDSRTNGRGWAATDNKYRSWGRGNSYYYGNENNVDGLNELNRGPRAKGTKNQKGNLDDSLEVKEQTGESNVTEVGEADNTCVVPDREQYNKEDFPVDYANAMFFIIKSYSEDDVHKSIKYNVWASTPNGNKKLAAAYQEAQQKAGGCPIFLFFSVNASGQFVGLAEMTGPVDFNTNVEYWQQDKWTGSFPLKWHIVKDVPNSLLKHITLENNENKPVTNSRDTQEVKLEQGLKIVKIFKEHSSKTCILDDFSFYEVRQKTILEKKAKQTQKQVSEEKVTDEKKESATAESASKESPAAVQTSSDVKVAENGSVAKPVTGDVVANGC | binds

molecular target: T1, ECT2^WT-mCherry (Arabidopsis thaliana); assay: affinity purification with mass spectrometry; comparative IP-MS of ECT2-mCherry variants (RFP-trap) from stable transgenic lines in the te234 background; immunopurifications in the presence of RNaseA; biological triplicates

Row | binding | Molecule
6 | binds | ALBA2
7 | binds | ALBA4 (from UniProt A0A1P8AM56)

Further lines, the molecule ahead of its results:

Row | Molecule | binding
8 | ALBA5 | binds
9 | ALBA1 (from UniProt Q9LP53) | binds
